The source gives many values for each of these; only a part stands here.
Tested on: HepG2 cells
Experiment: 44 k whole human genome oligo microarray gene expression, cells treated with chrysene at IC20 for 48 hours (Cy5) vs untreated control (Cy3)
Format: cell-based
Description: HepG2 cells were distributed on a 100 mm dish at the concentration of 6×10^6 cell/ml, to which chrysene was treated for 48 hours at the concentration that was determined in Example <1-2>. Total RNA was extracted from the cells using trizol reagent (Invitrogen life technologies, USA) according to the manufacturer's instruction and the extracted RNA was purified by using RNeasy mini kit (Qiagen, USA). The genomic DNA was eliminated during the purification of RNA using RNase-free DNase set (Qiagen, USA). The total RNA was quantified by spectrophotometer and purity was measured by Agilent 2100 Bioanalyzer (Agilent Technologies, USA) and agarose gel-electrophoration.
For oligo-microarray analysis, cDNA was synthesized using the total RNA extracted from the experimental group treated with chrysene obtained in Example <2-1>. 30 μg of the total RNA and 2 μg (1 μg/μl) of oligo (dT) primer were mixed, followed by reaction for 10 minutes at 65° C. Then, the reaction mixture was put in ice, followed by annealing. Reagents were mixed as shown in Table 1 for reverse transcription of the RNA.
The total RNA extracted from the control HepG2 cell line was labeled with Cy3-dUTP (green), while the RNA extracted from the experimental HepG2 cell line treated with chrysene was labeled with Cy5-dUTP (red). At this time, the two samples were mixed and purified by Microcon YM-30 column (Millipore, USA).
Hybridization and washing were performed according to the instruction of GeneoCheck Co., Ltd. Hybridization was performed in a 62° C. oven for 12 hours. At this time, 44 k whole human genome oligo microarray (Agilent, USA) was used as a DNA microarray chip. After washing (with 2×SSC/0.1% SDS for 2 minutes, with 1×SSC for 3 minutes, with 0.2×SSC for 2 minutes), the slide was centrifuged at 800 rpm for 3 minutes and dried.
Scanning of the hybridized images on the slide was performed by using Genepix 4000B (Axon Instruments, USA). Fluorescence images of the chip washed to eliminate non-binding genes were obtained by laser fluorescence scanner. At this time, green fluorescent images indicated the activity of the gene expressed in the control, whereas red fluorescent images indicated the activity of the gene expressed specifically in the experimental group. […] The scanned images were analyzed by GenePix 4.1 software (Axon Instruments, USA) to calculate the gene expression rate. Based on the obtained data, marker genes for chrysene were selected (see FIG. 2).

c1ccc2c(c1)ccc1c3ccccc3ccc21 [chrysene]
Ratio of intermediate value (KITLG (NM_000899)): 3.752
Ratio of intermediate value (LAMA3 (NM_198129)): 6.314
Ratio of intermediate value (LAMP3 (BC032940)): 2.729
Ratio of intermediate value (LEFTY1 (NM_020997)): 4.012
Ratio of intermediate value (LGALS1 (NM_002305)): 2.686
Ratio of intermediate value (LGALS7 (CN478604)): 4.216
Ratio of intermediate value (LHX6 (AK126982)): 3.754
Ratio of intermediate value (LOC283130 (AL050210)): 3.265
Ratio of intermediate value (LOC343521 (NM_001013632)): 5.344
Ratio of intermediate value (LOXL1 (NM_005576)): 3.992
Ratio of intermediate value (LRMP (NM_006152)): 3.453
Ratio of intermediate value (LRP10 (NM_014045)): 4.617
Ratio of intermediate value (LTB4DH (AK091948)): 2.915
Ratio of intermediate value (MAP3K14 (NM_003954)): 2.642
Ratio of intermediate value (MB (BF670653)): 3.908
Ratio of intermediate value (MDM2 (M92424)): 4.057
Ratio of intermediate value (MGC4734 (AK091940)): 3.644
Ratio of intermediate value (MGC13186 (BX537541)): 3.712
Ratio of intermediate value (MGC17986 (BC041578)): 3.167
Ratio of intermediate value (MICAL-L1 (AB051455)): 3.221
Ratio of intermediate value (MICAL-L2 (AK074068)): 3.122
Ratio of intermediate value (MLPH (NM_024101)): 3.369
Ratio of intermediate value (MTA2 (NM_004739)): 2.439
Ratio of intermediate value (MYO6 (NM_004999)): 3.021
Ratio of intermediate value (NIFUN (NM_014301)): 3.923
Ratio of intermediate value (NP (AK126154)): 2.252
Ratio of intermediate value (NR0B2 (BC030207)): 2.924
Ratio of intermediate value (NRP1 (NM_003873)): 2.102
Ratio of intermediate value (OSBPL3 (NM_145323)): 2.684
Ratio of intermediate value (OSMR (BC063468)): 2.653
Ratio of intermediate value (P2RX1 (BC027949)): 2.094
Ratio of intermediate value (P4HA2 (NM_004199)): 4.764
Ratio of intermediate value (PCNA (BM462208)): 5.947
Ratio of intermediate value (PCNP (BX647886)): 2.133
Ratio of intermediate value (PDCD6 (AB033060)): 5.709
Ratio of intermediate value (PHLDA1 (BC047362)): 2.031
Ratio of intermediate value (PHLDA2 (NM_003311)): 3.66
Ratio of intermediate value (PLAC2 (BC036545)): 4.74
Ratio of intermediate value (PLCD1 (BX647927)): 2.791
Ratio of intermediate value (PLTP (AK097009)): 6.838
Ratio of intermediate value (PML (NM_033245)): 2.031
Ratio of intermediate value (POLH (AB024313)): 3.515
Ratio of intermediate value (PP2135 (NM_022153)): 6.334
Ratio of intermediate value (PPP2CB (NM_001009552)): 2.132
Ratio of intermediate value (PPP3CB (NM_021132)): 2.196
Ratio of intermediate value (PRF1 (BC063043)): 2.301
Ratio of intermediate value (PRKAB1 (BC001823)): 2.07
Ratio of intermediate value (PTTG1 (BU675073)): 2.179
Ratio of intermediate value (PYCARD (NM_013258)): 2.705
Ratio of intermediate value (RAD51C (BC073161)): 2.093
Ratio of intermediate value (RARA (BC038432)): 2.871
Ratio of intermediate value (RASAL1 (AB208935)): 13.23
Ratio of intermediate value (RB1 (L41870)): 2.431
Ratio of intermediate value (RBP3 (NM_002900)): 2.882
Ratio of intermediate value (REC8L1 (AL832973)): 2.05
Ratio of intermediate value (RGC32 (AK095079)): 3.294
Ratio of intermediate value (RHOC (AK094474)): 4.228
Ratio of intermediate value (RPS27L (BF983391)): 4.896
Ratio of intermediate value (S100A11 (BQ683841)): 6.064
Ratio of intermediate value (S100A13 (NM_005979)): 2.388
Ratio of intermediate value (S100A16 (NM_080388)): 2.608
Ratio of intermediate value (SESN1 (AF033122)): 3.728
Ratio of intermediate value (SFRP4 (AF026692)): 2.098
Ratio of intermediate value (SH2D2A (NM_003975)): 6.609
Ratio of intermediate value (SH3BGRL3 (NM_031286)): 2.915
Ratio of intermediate value (SHBG (CD013956)): 3.686
Ratio of intermediate value (SLC4A11 (AF336127)): 4.117
Ratio of intermediate value (SLC6A12 (AK125026)): 3.756
Ratio of intermediate value (SLC12A4 (NM_005072)): 2.184
Ratio of intermediate value (SLC16A5 (AK092512)): 2.578
Ratio of intermediate value (SLC22A2 (AB075951)): 3.984
Ratio of intermediate value (SLC35A4 (AF445025)): 3.019
Ratio of intermediate value (SLC37A2 (AK074100)): 8.472
Ratio of intermediate value (SLC40A1 (NM_014585)): 4.61
Ratio of intermediate value (SPP1 (NM_000582)): 3.007
Ratio of intermediate value (SQSTM1 (AK096241)): 2.016
Ratio of intermediate value (SSB1 (NM_025106)): 2.523
Ratio of intermediate value (SSR1 (CR936719)): 2.559
Ratio of intermediate value (STK17A (BX537586)): 2.174
Ratio of intermediate value (STX6 (NM_005819)): 3.089
Ratio of intermediate value (SYTL1 (NM_032872)): 4.931
Ratio of intermediate value (TALDO1 (AK130060)): 2.107
Ratio of intermediate value (TBC1D8 (AB024057)): 2.535
Ratio of intermediate value (TDH (AK057762)): 12.35
Ratio of intermediate value (TEP1 (U86136)): 5.355
Ratio of intermediate value (TGM4 (BC007003)): 24.07
Ratio of intermediate value (TIMP1 (BM913048)): 14.52
Ratio of intermediate value (TM4SF5 (W84524)): 1.768
Ratio of intermediate value (TMSB10 (BQ276852)): 1.864
Ratio of intermediate value (TNFAIP8 (AK097284)): 3.301
Ratio of intermediate value (TNFRSF10B (NM_003842)): 2.165
Ratio of intermediate value (TNFRSF14 (NM_003820)): 4.242
Ratio of intermediate value (TP53AP1 (BC068535)): 3.847
Ratio of intermediate value (TP53INP1 (AK125880)): 4.731
Ratio of intermediate value (TRIM38 (CR936707)): 3.756
Ratio of intermediate value (TSPAN1 (NM_005727)): 8.455
Ratio of intermediate value (TUBA1 (AK054731)): 4.193
Ratio of intermediate value (TUBA4 (AK024002)): 7.428
Ratio of intermediate value (TUBB6 (AK092677)): 6.458
Ratio of intermediate value (TWIST1 (NM_000474)): 2.962
Ratio of intermediate value (TXN (NM_003329)): 2.325
Ratio of intermediate value (TXNRD1 (NM_003330)): 2.811
Ratio of intermediate value (TYMS (NM_001012716)): 3.124
Ratio of intermediate value (UCP2 (AK025742)): 3.187
Ratio of intermediate value (UGT2B7 (J05428)): 2.292
Ratio of intermediate value (UNC5C (AF055634)): 2.645
Ratio of intermediate value (UNQ2541 (BC035124)): 11.28
Ratio of intermediate value (UNQ6077 (XM_496436)): 2.011
Ratio of intermediate value (VTI1B (BC042390)): 4.486
Ratio of intermediate value (ZNF337 (BC034569)): 4.083
Ratio of intermediate value (ZNF385 (AY461717)): 20.23
Ratio of intermediate value (ZSCAN4 (AK092424)): 17.63
